Drug screen on melanoma cell lines: cell count

Compounds and concentrations:
LFM-A13 (10000 nM): C/C(O)=C(\C#N)C(=O)Nc1cc(Br)ccc1Br
bortezomib (5 nM): CC(C)C[C@H](NC(=O)[C@H](Cc1ccccc1)NC(=O)c1cnccn1)B(O)O
MK-2206 (2000 nM): NC1(c2ccc(-c3nc4ccn5c(=O)[nH]nc5c4cc3-c3ccccc3)cc2)CCC1
lestaurtinib (20 nM): C[C@]12O[C@H](C[C@]1(O)CO)n1c3ccccc3c3c4c(c5c6ccccc6n2c5c31)CNC4=O
AS-252424 (5000 nM): O=C1NC(=O)/C(=C/c2ccc(-c3ccc(F)cc3O)o2)S1
CP-690550 (5000 nM): C[C@@H]1CCN(C(=O)CC#N)C[C@@H]1N(C)c1ncnc2[nH]ccc12
pazopanib (2000 nM): Cc1ccc(Nc2nccc(N(C)c3ccc4c(C)n(C)nc4c3)n2)cc1S(N)(=O)=O
nilutamide (5000 nM): CC1(C)NC(=O)N(c2ccc([N+](=O)[O-])c(C(F)(F)F)c2)C1=O
STA-4783 (30 nM): CN(NC(=O)CC(=O)NN(C)C(=S)c1ccccc1)C(=S)c1ccccc1

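Human melanoma cells were exposed to a pair of drugs for 72 h in 1,536-well plates and read by automated microscopy after fixing and staining. Each value is the count of nuclei relative to DMSO-treated wells, in %, so that 100 equals the control. Concentrations were fixed for each drug; these are the higher of two levels. The file gives one value for each pair and line, without errors, so small differences may be noise.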 Only some of the drugs and lines screened are listed, without regard to their results.

pazopanib + bortezomib gave COLO 800: 65.0; COLO 829: 7.5; COLO 792: 27.5; WM451Lu: 17.9; C32: 30.3; WM3619: 3.4. Results for bortezomib + LFM-A13 are COLO 800: 40.2; COLO 829: 21.6; COLO 792: 44.3; WM451Lu: 29.6; C32: 31.9; WM3619: 4.6. Results for pazopanib + AS-252424 are COLO 800: 103; COLO 829: 72.2; COLO 792: 82.5; WM451Lu: 97.4; C32: 94.0; WM3619: 78.0. lestaurtinib + LFM-A13 gave COLO 800: 80.8; COLO 829: 86.1; COLO 792: 59.2; WM451Lu: 99.8; C32: 95.8; WM3619: 68.4. With STA-4783 + nilutamide the screen read COLO 800: 15.3; COLO 829: 59.2; COLO 792: 28.3; WM451Lu: 83.5; C32: 17.6; WM3619: 7.6. Results for nilutamide + MK-2206 are COLO 800: 35.0; COLO 829: 90.0; COLO 792: 65.8; WM451Lu: 89.4; C32: 76.3; WM3619: 95.9.

With LFM-A13 + pazopanib the screen read COLO 800: 125; COLO 829: 92.3; COLO 792: 124; WM451Lu: 108; C32: 124; WM3619: 94.2. lestaurtinib + bortezomib gave COLO 800: 77.7; COLO 829: 16.4; COLO 792: 24.9; WM451Lu: 18.1; C32: 23.5; WM3619: 3.8. For bortezomib + STA-4783 the values were COLO 800: 15.1; COLO 829: 13.9; COLO 792: 17.4; WM451Lu: 27.4; C32: 31.9; WM3619: 6.6. MK-2206 + CP-690550 gave COLO 800: 61.0; COLO 829: 104; COLO 792: 47.8; WM451Lu: 99.2; C32: 105; WM3619: 68.4. AS-252424 + MK-2206 gave COLO 800: 39.3; COLO 829: 77.3; COLO 792: 35.7; WM451Lu: 94.8; C32: 78.6; WM3619: 59.2. For LFM-A13 + nilutamide the values were COLO 800: 74.3; COLO 829: 115; COLO 792: 91.0; WM451Lu: 78.9; C32: 141; WM3619: 110.

With CP-690550 + LFM-A13 the screen read COLO 800: 90.8; COLO 829: 93.4; COLO 792: 105; WM451Lu: 135; C32: 111; WM3619: 86.1. For MK-2206 + LFM-A13 the values were COLO 800: 49.3; COLO 829: 73.2; COLO 792: 56.8; WM451Lu: 88.3; C32: 91.0; WM3619: 79.3. Results for nilutamide + lestaurtinib are COLO 800: 108; COLO 829: 113; COLO 792: 62.7; WM451Lu: 88.3; C32: 105; WM3619: 89.3. Results for MK-2206 + STA-4783 are COLO 800: 8.4; COLO 829: 45.5; COLO 792: 15.7; WM451Lu: 80.1; C32: 17.4; WM3619: 4.4. nilutamide + bortezomib gave COLO 800: 68.1; COLO 829: 17.4; COLO 792: 39.3; WM451Lu: 25.9; C32: 23.0; WM3619: 4.2. For STA-4783 + AS-252424 the values were COLO 800: 55.5; COLO 829: 74.5; COLO 792: 37.2; WM451Lu: 84.6; C32: 21.1; WM3619: 10.6.

With STA-4783 + pazopanib the screen read COLO 800: 16.7; COLO 829: 81.0; COLO 792: 37.1; WM451Lu: 74.5; C32: 30.6; WM3619: 6.7. With AS-252424 + nilutamide the screen read COLO 800: 84.5; COLO 829: 103; COLO 792: 84.4; WM451Lu: 78.2; C32: 107; WM3619: 91.0. For nilutamide + pazopanib the values were COLO 800: 22.6; COLO 829: 83.7; COLO 792: 98.0; WM451Lu: 99.1; C32: 104; WM3619: 79.7. With AS-252424 + LFM-A13 the screen read COLO 800: 112; COLO 829: 98.8; COLO 792: 94.3; WM451Lu: 101; C32: 101; WM3619: 126. For pazopanib + CP-690550 the values were COLO 800: 116; COLO 829: 105; COLO 792: 121; WM451Lu: 83.1; C32: 108; WM3619: 79.8. Results for STA-4783 + CP-690550 are COLO 800: 10.7; COLO 829: 49.6; COLO 792: 23.1; WM451Lu: 73.4; C32: 20.1; WM3619: 2.7.

MK-2206 + bortezomib gave COLO 800: 45.4; COLO 829: 7.6; COLO 792: 14.3; WM451Lu: 19.8; C32: 16.5; WM3619: 1.0. For LFM-A13 + STA-4783 the values were COLO 800: 20.3; COLO 829: 60.7; COLO 792: 37.8; WM451Lu: 84.7; C32: 32.6; WM3619: 9.3. AS-252424 + lestaurtinib gave COLO 800: 138; COLO 829: 83.9; COLO 792: 84.3; WM451Lu: 96.0; C32: 96.4; WM3619: 84.5. CP-690550 + lestaurtinib gave COLO 800: 132; COLO 829: 135; COLO 792: 61.7; WM451Lu: 97.9; C32: 109; WM3619: 97.9. For bortezomib + CP-690550 the values were COLO 800: 66.7; COLO 829: 14.3; COLO 792: 58.4; WM451Lu: 30.0; C32: 31.1; WM3619: 3.7. MK-2206 + lestaurtinib gave COLO 800: 72.8; COLO 829: 81.8; COLO 792: 26.0; WM451Lu: 71.7; C32: 77.7; WM3619: 86.4.

With MK-2206 + pazopanib the screen read COLO 800: 133; COLO 829: 87.0; COLO 792: 80.0; WM451Lu: 83.1; C32: 97.5; WM3619: 86.5. Results for AS-252424 + CP-690550 are COLO 800: 104; COLO 829: 105; COLO 792: 94.4; WM451Lu: 78.5; C32: 111; WM3619: 74.4. Results for pazopanib + lestaurtinib are COLO 800: 115; COLO 829: 77.8; COLO 792: 60.6; WM451Lu: 89.5; C32: 103; WM3619: 72.3. For nilutamide + CP-690550 the values were COLO 800: 72.0; COLO 829: 74.4; COLO 792: 83.4; WM451Lu: 99.1; C32: 84.9; WM3619: 96.3. With lestaurtinib + STA-4783 the screen read COLO 800: 16.3; COLO 829: 54.1; COLO 792: 18.5; WM451Lu: 59.0; C32: 12.3; WM3619: 8.4.

3 of the entries, repeated:

{"drugs": "MK-2206 + CP-690550", "COLO 800": 61.0, "COLO 829": 104, "COLO 792": 47.8, "WM451Lu": 99.2, "C32": 105, "WM3619": 68.4}
{"drugs": "AS-252424 + lestaurtinib", "COLO 800": 138, "COLO 829": 83.9, "COLO 792": 84.3, "WM451Lu": 96.0, "C32": 96.4, "WM3619": 84.5}
{"drugs": "CP-690550 + lestaurtinib", "COLO 800": 132, "COLO 829": 135, "COLO 792": 61.7, "WM451Lu": 97.9, "C32": 109, "WM3619": 97.9}

Source: doi:10.1371/journal.pone.0140310, primary screening data, rounded.